Source: patent US20250032430A1, “USES OF RHODOQUINONE FOR THE TREATMENT OF DISEASE” (Whitehead Institute for Biomedical Research, priority 2021, published 2025)
“Also recorded” adds a separate entry of the source.

Experiment: Quinone detection by mass spectrometry in mouse tissues and feces
Details: for detection in mitochondria isolated from mouse tissues / detection in feces, stool and cecum: endogenous; for detection in mitochondria isolated from mouse tissues: mass spectrometry; for detection in feces, stool and cecum: mouse

| Compound | detection in mitochondria isolated from mouse tissues | detection in feces, stool and cecum | level in kidney mitochondria (germ-free mice) | level in kidney mitochondria (wild-type mice) |
| --- | --- | --- | --- | --- |
| COC1=C(OC)C(=O)C(C/C=C(\C)CC/C=C(\C)CC/C=C(\C)CC/C=C(\C)CC/C=C(\C)CC/C=C(\C)CC/C=C(\C)CC/C=C(\C)CCC=C(C)C)=C(C)C1=O [Ubiquinone-9, ubiquinone-9] | detected in all mouse tissues |  |  |  |
| rhodoquinone | detected in kidney, liver, and brain; also recorded: detected at high levels in many tissues | detected in the stool and cecum |  |  |
| rhodoquinone-9 | only detected in abundance in mouse kidney, liver, duodenum, jejunum, and colon | in mouse feces | substantially depleted | detected |
